Measured values as given in PubChem BioAssay AID1671190 (National Center for Advancing Translational Sciences (NCATS), 2021).
Among all 580,000 compounds or so, about 6,100 (1.1%) were called active. The shares of active, inactive and inconclusive entries below differ from those in the screen. Calls come from the whole dose curve; as a rule, active = well fitted inhibition curve with a large enough effect; inconclusive = small, poorly fitted or top-dose-only effect, or another doubt; inactive = no such curve, though single readings can be large or run the other way. Potencies beside an inconclusive call are fits to weak or partial responses and may not hold up.

Protein sequences, listed by entry. Tags and fused reporters are not part of them. Lines headed by an entry give the natural chain unless they say otherwise; changes in a name come on top.
UniProt P18054: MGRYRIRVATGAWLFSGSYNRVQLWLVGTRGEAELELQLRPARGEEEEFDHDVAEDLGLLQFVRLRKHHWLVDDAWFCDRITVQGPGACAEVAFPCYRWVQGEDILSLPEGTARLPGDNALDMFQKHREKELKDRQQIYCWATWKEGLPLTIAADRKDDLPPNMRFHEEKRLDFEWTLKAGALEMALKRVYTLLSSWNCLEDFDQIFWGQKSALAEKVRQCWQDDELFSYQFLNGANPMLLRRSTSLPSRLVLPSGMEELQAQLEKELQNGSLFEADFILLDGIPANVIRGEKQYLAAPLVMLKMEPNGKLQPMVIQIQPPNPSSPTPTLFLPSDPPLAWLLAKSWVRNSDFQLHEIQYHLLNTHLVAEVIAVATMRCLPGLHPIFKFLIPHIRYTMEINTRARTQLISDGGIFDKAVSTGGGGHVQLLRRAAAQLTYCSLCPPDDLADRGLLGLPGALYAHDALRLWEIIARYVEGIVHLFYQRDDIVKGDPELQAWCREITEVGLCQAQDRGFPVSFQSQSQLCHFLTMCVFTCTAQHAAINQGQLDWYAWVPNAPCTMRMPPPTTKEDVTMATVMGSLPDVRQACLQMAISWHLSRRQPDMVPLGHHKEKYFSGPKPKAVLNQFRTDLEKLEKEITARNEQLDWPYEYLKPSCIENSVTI

target: Polyunsaturated fatty acid lipoxygenase ALOX12 (Homo sapiens) (UniProt P18054); test: Primary qHTS assay for inhibitors of human arachidonate 12S-lipoxygenase (ALOX12): Round 2; conditions: purified 12hLO, xylenol orange hydroperoxide absorbance; activity change, negative = inhibition: at 108 µM (top of the series) unless noted
Procedure, shortened: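 Hydroperoxide product was detected by ferrous iron/xylenol orange as the 573 to 405 nm absorbance ratio. Arachidonic acid at 40 uM (final) was turned over for 30 min at room temperature by 150 nM human 12hLO, pH 7.0 Hepes buffer, after 15 min compound preincubation.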
% is set by controls: 0 for no effect and ±100 for the full control effect; potency is the fitted concentration of half-maximal effect.

| Structure (SMILES) | activity change, negative = inhibition | Potency |
| --- | --- | --- |
| CCc1ccc(C(C)NC(=O)Cn2nnn(-c3ccccc3)c2=O)cc1 (configuration not stated) | inactive: 16.4% | – |
| Cc1nc2cc(NC(=O)COc3ccc(Br)cc3F)ccc2o1 | – | inconclusive: 89.1 µM [inhibitor, single point] |
| Cn1nc(C(=O)Nc2c(-c3ccccc3)nc3sccn23)c2ccccc2c1=O | inactive: 0% | – |
| COc1ccc(CCNc2oc(-c3cccc4ccccc34)nc2C#N)cc1OC | – | inconclusive: 35.5 µM [inhibitor, partial curve, poor fit] |
| CCCCc1ccc(C(=O)NCc2ccccn2)cc1 | inactive: 51.9% | – |
| CCOC(=O)c1nc2sc3c(c2c(=O)[nH]1)CCCC3 | inactive: 0% | – |
| O=C(NNC(=O)c1ccccc1OCCOc1ccccc1)c1cccc(F)c1 | inactive: 5.36% | – |
| CCOC(=O)c1ccc(N2C(=O)c3n[nH]c(-c4ccco4)c3C2c2cccnc2)cc1 (configuration not stated) | inactive: 12.3% | – |
| O=C1c2ccccc2NC(c2ccccc2)N1NS(=O)(=O)c1ccccc1 (configuration not stated) | – | inconclusive: 44.7 µM [inhibitor, partial curve, poor fit] |
| Cc1cc(C)n(-c2nnc(C)n2N)n1 | – | inconclusive: 31.6 µM [inhibitor, partial curve, poor fit] |
| CC(C)N(CC(=O)NC(N)=O)Cc1ccccc1 | – | inconclusive: 112 µM [inhibitor, single point] |
| CSCCC(NC(=O)c1ccc(Cl)cc1)C(=O)OCC(=O)Nc1ccc(C#N)cc1 (configuration not stated) | – | active: 31.6 µM |
| CCC(Sc1ccc2nnc(-c3ccc(F)cc3)n2n1)C(=O)OC (configuration not stated) | – | inconclusive: 39.8 µM [inhibitor, partial curve, poor fit] |
| COC(=O)c1c(SCC(=O)Nc2ccccc2C(F)(F)F)[nH]c2ccc(Cl)cc2c1=O | – | inconclusive: 89.1 µM [inhibitor, partial curve, poor fit] |
| Cc1ccc(CNC(=O)CCc2c(C)c3cc4c(C)coc4cc3oc2=O)cc1 | inconclusive: -49.3% [inhibitor] | – |
| O=C(N/N=C/c1ccc(-c2ccccc2[N+](=O)[O-])o1)[C@H]1C[C@@H]1c1ccccc1 | inactive: 17.2% | – |
| C[C@H]1CN([C@@H](C)CO)C(=O)CCCn2nncc2CO[C@H]1CN(C)S(=O)(=O)c1cccc(F)c1 | – | inconclusive: 89.1 µM [inhibitor, single point] |
| O=C(COc1ccc2ccc(=O)oc2c1)N1CCCc2ccccc21 | – | inconclusive: 25.1 µM [inhibitor, partial curve, poor fit] |
| COC(=O)C1(C)NC(c2cccs2)C2C(=O)N(c3ccccc3F)C(=O)C21 (configuration not stated) | – | inconclusive: 0.178 µM [inhibitor, full curve, poor fit] |

Copied from the list:
For Potency, `C[C@H]1CN([C@@H](C)CO)C(=O)CCCn2nncc2CO[C@H]1CN(C)S(=O)(=O)c1cccc(F)c1` has the entry inconclusive: 89.1 µM [inhibitor, single point]
For activity change, negative = inhibition, `Cc1ccc(CNC(=O)CCc2c(C)c3cc4c(C)coc4cc3oc2=O)cc1` has the entry inconclusive: -49.3% [inhibitor]

Next part:

| Structure (SMILES) | activity change, negative = inhibition | Potency |
| --- | --- | --- |
| C=CCn1c2ccccc2c2nnc(SCCCn3c(=O)[nH]c4ccccc43)nc21 | inactive: 0% | – |
| COc1ccc(CCNC(=O)c2cc3c(=O)n4ccccc4nc3n(Cc3ccco3)c2=N)cc1OC | inactive: -28.2% | – |
| CCOC(=O)C1CCN(C(c2ccc(C)cc2)c2sc3nc(-c4ccco4)nn3c2O)CC1 (configuration not stated) | inconclusive: -30.8% [inhibitor] | – |
| N#Cc1ccccc1COC(=O)/C=C/c1ccc(OC(F)F)cc1 | – | inconclusive: 126 µM [inhibitor, single point] |
| NC(=O)CN1CCN(c2cccc(Cl)c2)CC1 | inactive: 0.266% | – |
| CC(C)CNc1cccc2c1S(=O)(=O)N[C@@H](Cc1ccccc1)CO2 | – | inconclusive: 56.2 µM [inhibitor, partial curve] |
| O=C(O)CC1(O)C(=O)N(Cc2ccccc2)c2ccccc21 (configuration not stated) | inactive: -4.35% | – |
| C=CCN(c1ccc(C(=O)Nc2cccc(C)c2)cc1)S(C)(=O)=O | inactive: 3.64% | – |
| CC(C)C(=O)Nc1nnc(NC(=S)Nc2ccccc2)s1 | – | inconclusive: 44.7 µM [inhibitor, partial curve, poor fit] |
| COc1ccc(NC(=O)CN(C)C(=O)CNC(=O)c2ccc3c(c2)OCO3)cc1 | – | inconclusive: 50.1 µM [inhibitor, single point] |
| CCOc1nc(OCC)c2[nH]c(C(=O)O)c(Br)c2n1 | – | inconclusive: 1 µM [inhibitor, full curve, poor fit] |
| CCCCNC(=S)NNc1c(Cl)cc(Cl)cc1Cl | – | inconclusive: 89.1 µM [inhibitor, single point] |
| O=C(O)c1ccc2c(c1Sc1ccccc1)C(=O)c1ccccc1C2=O | – | inconclusive: 31.6 µM [inhibitor, partial curve] |
| O=C(c1cc(Sc2cccc(Cl)c2)nc2ccccc12)N1CCN(c2ccccn2)CC1 | inactive: -10% | – |
| Cc1ccc(CSc2nccc(-c3c(C)nc4ccccn34)n2)cc1 | inactive: 94.2% | – |
| O=C1Nc2ccccc2CN(CC2CCCCC2)C12CCNCC2 | – | inconclusive: 10 µM [inhibitor, full curve, poor fit] |
| O=C(Nc1cccc(Cl)c1)c1ccc2ncsc2c1 | – | inconclusive: 15.8 µM [inhibitor, partial curve, poor fit] |
| Cc1ccc(F)c(C(CC(=O)NCc2ccco2)c2c[nH]c3ccc([N+](=O)[O-])cc23)c1 (configuration not stated) | – | inconclusive: 79.4 µM [inhibitor, single point] |
